# Laboratory results published in paper PMC4412466 (Supramolecular chemistry, 2014).
# Experiment: Phase solubility diagram of container with excess cinnarizine
# Assay type: physicochemical
# Conditions: 20 mM 1 used with excess cinnarizine, 50 mM NaOAc, pD 4.74
compound,measurement,value
C(=C\c1ccccc1)/CN1CCN(C(c2ccccc2)c2ccccc2)CC1 [cinnarizine],concentration of drug in final solution,260 µM
